Results published in patent US10202580B2, “Adult oligodendrocyte-type 2 astrocyte progenitor cell production method” (Japan Science and Technology Agency, priority 2014, dated 2019).
Some results were stated once for a whole list of compounds, not compound by compound.

Test system: proliferating OPC
Assay: Number of cell divisions per colony in TH- or RA-containing medium, oxygen 1.5% by volume (Example 3)
Assay type: cell-based, rat
Settings: 1.5% O2; 12 days; TH 40 ng/mL each or RA 1 ng/mL
Method: In addition, unless specifically indicated otherwise, the proliferating OPC used in the following examples were isolated from the optic nerves of 7-day-old rats (P7) in accordance with the immunopanning method of Barres, et al. (Barres, et al., Cell, 1992, Vol. 70, p. 31-46), and the purity thereof (percentage of proliferating OPC relative to all cells) was 99.9% or more.
Proliferating OPC were cultured in medium to which was added thyroid hormone or medium to which was added retinoic acid in an environment having an oxygen concentration of 1.5% by volume followed by investigating the effect of retinoic acid […] on the proliferating OPC.
Six glass bottom culture dishes having a diameter of 12 mm and-coated with PDL were prepared by seeding with 300 proliferating OPC per culture disk, followed by culturing for 12 days at 37° C. in an environment having an oxygen concentration of 1.5% by volume and carbon dioxide concentration of 5% by volume. […]
Following completion of culturing, the numbers of cells that formed colonies were respectively counted and the number of cell divisions was determined for each colony. […]

Compound: CC1=C(/C=C/C(C)=C/C=C/C(C)=C/C(=O)O)C(C)(C)CCC1 [RA, all-trans retinoic acid]
- highest number of cell divisions of any colony: ≤ 10
